In test [1] the target is HA-tagged Drp1 (UAS-Drp1^HA expressed in fly muscle with Mhc-Gal4) (Drosophila melanogaster) (UniProt Q9VQE0). Put plainly: co-IP; protein extracts of adult thoraxes (MhcGal4 > UAS-Drp1^HA + Cdk8::GFP, 25 °C), pre-cleared with IgG, incubated with anti-HA or IgG beads overnight at 4 °C; Cdk8::GFP detected with rabbit anti-GFP.
For test [2], the target named is Myc-tagged Cdk8 (pAWM-Cdk8) (Drosophila melanogaster) (UniProt Q9VT57). In words: co-IP; cytoplasmic fractions of S2R+ cells with pAWM-Cdk8 and pAWH-Drp1, Myc-agarose beads overnight at 4 °C, then in vitro kinase assay with or without 0.2 mM ATP; Drp1 detected with anti-Drp1.
Test [3] has the same target. Put plainly: co-IP; S2R+ cells co-transfected with Myc-tagged Cdk8 and HA-tagged Drp1; extracts incubated with IgG, HA or Myc-agarose beads overnight at 4 °C; Western blot. (In western blotting, separated proteins are transferred to a membrane and probed.)
The target of test [4] is HA-tagged Drp1 (pAWH-Drp1) (Drosophila melanogaster) (UniProt Q9VQE0). The description is as above.

Sequences of proteins named here, by UniProt entry; tags and fusion partners are left off.
UniProt Q9VQE0: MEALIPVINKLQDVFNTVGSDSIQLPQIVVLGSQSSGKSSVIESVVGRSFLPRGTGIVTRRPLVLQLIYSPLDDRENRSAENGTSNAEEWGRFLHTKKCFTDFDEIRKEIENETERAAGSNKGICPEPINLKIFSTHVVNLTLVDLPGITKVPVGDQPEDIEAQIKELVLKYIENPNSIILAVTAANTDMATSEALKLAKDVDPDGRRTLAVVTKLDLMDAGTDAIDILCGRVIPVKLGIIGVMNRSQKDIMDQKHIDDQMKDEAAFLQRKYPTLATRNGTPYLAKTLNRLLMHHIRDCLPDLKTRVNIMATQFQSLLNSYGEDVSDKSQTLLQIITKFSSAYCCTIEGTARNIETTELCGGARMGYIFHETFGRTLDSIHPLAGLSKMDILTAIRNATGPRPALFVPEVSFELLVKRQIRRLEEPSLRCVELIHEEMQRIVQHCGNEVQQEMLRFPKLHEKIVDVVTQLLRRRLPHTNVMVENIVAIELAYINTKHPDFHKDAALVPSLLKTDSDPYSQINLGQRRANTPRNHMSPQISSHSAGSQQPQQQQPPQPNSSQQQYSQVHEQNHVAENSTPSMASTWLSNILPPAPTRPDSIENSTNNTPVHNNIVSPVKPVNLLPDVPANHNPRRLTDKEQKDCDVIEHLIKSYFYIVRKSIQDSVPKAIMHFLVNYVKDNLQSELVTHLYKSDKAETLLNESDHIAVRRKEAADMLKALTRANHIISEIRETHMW
UniProt Q9VT57: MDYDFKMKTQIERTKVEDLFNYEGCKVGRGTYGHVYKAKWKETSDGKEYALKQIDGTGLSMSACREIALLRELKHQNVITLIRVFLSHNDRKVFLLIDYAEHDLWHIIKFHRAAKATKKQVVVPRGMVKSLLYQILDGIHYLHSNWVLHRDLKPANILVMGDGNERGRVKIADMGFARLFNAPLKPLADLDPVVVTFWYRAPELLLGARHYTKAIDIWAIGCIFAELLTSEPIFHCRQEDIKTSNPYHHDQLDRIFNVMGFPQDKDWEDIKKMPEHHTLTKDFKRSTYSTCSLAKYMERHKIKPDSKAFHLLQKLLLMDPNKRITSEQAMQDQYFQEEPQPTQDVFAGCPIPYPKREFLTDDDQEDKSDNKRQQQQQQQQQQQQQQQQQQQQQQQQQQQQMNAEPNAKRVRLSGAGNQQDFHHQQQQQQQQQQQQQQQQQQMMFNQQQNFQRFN

No constants are given. Whether binding was seen depends on the method and setting. In cells and extracts the contact can be indirect. Some binding calls cover weakened binding; strength is not graded here.

For “Cdk8-superfolder-GFP fusion protein (endogenous GFP-tagged Cdk8) (from UniProt Q9VT57 1-454)”, the binding entry in test [1] was “binds”.
Regarding “HA-tagged Drp1 (pAWH-Drp1) (from UniProt Q9VQE0 1-735)”, the binding result in test [2] and in test [3] was “binds” in each case.
For the substance “Myc-tagged Cdk8 (pAWM-Cdk8) (from UniProt Q9VT57 1-454)”, the binding entry in test [4] is on record as “binds”.

The values above are taken from paper PMC11026413.
